The list does not hold the whole screen: it is rich in T/C values a quarter to a half above the control, in often repeated tests (any T/C) and in doses without a T/C. Further doses and runs are listed elsewhere. T/C: endpoint of the treated group in % of that of the vehicle group. Some entries give survivors of the animals treated and no T/C: the source files T/C as zero there, which appears to mark a toxic dose or a test without result, not a measured value. Some doses without a T/C left all or most animals alive at the check, yet need not have been tolerated: survival well below the control is almost never listed, so the zero probably covers shortened survival too. Counts of survivors are from the toxicity check (mostly the fifth day) where no day follows; animals may have died later. Schedule codes are those of the source, taken here to give the interval after Q, in days (D) or hours (H), and the number of doses after X. Some doses were run more than once; their values stand side by side, smallest first. For survival time, the PubChem record calls one and a half times the control and up active, and a quarter to a half above the control has no call in these data; cut-offs in other NCI protocols can differ.
Tested on: BDF1 mice, B16 melanoma ip, median survival T/C
Test: NCI In Vivo Anticancer Drug Screen. Data for tumor model B16 Melanoma (intraperitoneal) in B6D2F1 (BDF1) mice
Conditions: T/C endpoint: median survival time, higher T/C = longer survival
Experimental: The antitumor activity of compounds was measured in mice bearing transplantable tumors. Survival or tumor size were measured and the results are expressed as the measurement made in the treated group (T) divided by the measurement made in the vehicle treated control group (C). The tumor model used in this assay is B16 Melanoma (intraperitoneal) in B6D2F1 (BDF1) mice

[1] = dose: 100.0 mg/kg/injection, schedule: Q01DX009 (ip), vehicle: Klucel (hydroxypropylcellulose) (HPC)
[2] = dose: 200.0 mg/kg/injection, schedule: Q01DX009 (ip), vehicle: Klucel (hydroxypropylcellulose) (HPC)
[3] = dose: 400.0 mg/kg/injection, schedule: Q01DX009 (ip), vehicle: saline
[4] = dose: 400.0 mg/kg/injection, schedule: Q01DX009 (ip), vehicle: Klucel (hydroxypropylcellulose) (HPC)
[5] = dose: 100.0 mg/kg/injection, schedule: Q01DX009 (ip), vehicle: saline with Tween-80
[6] = dose: 200.0 mg/kg/injection, schedule: Q01DX009 (ip), vehicle: saline

Clc1ccc2c(c1)/C(=C\c1ccnc3ccccc13)c1cc(Cl)cc(Cl)c1-2
survivor count (dose: 12.5 mg/kg/injection, schedule: Q01DX009 (ip), vehicle: saline with Tween-80): 6 of 6
survivor count (dose: 25.0 mg/kg/injection, schedule: Q01DX009 (ip), vehicle: saline with Tween-80): 6 of 6

O=C(O)c1ccc(Nc2c3ccccc3nc3ccccc23)cc1
T/C (dose: 19.0 mg/kg/injection, schedule: Q01DX009 (ip), vehicle: saline with Tween-80): 129 % of control
T/C (dose: 29.0 mg/kg/injection, schedule: Q01DX009 (ip), vehicle: saline with Tween-80): 145 % of control
survivor count (dose: 63.0 mg/kg/injection, schedule: Q01DX009 (ip), vehicle: other): 10 of 10
survivor count (dose: 66.0 mg/kg/injection, schedule: Q01DX009 (ip), vehicle: Klucel (hydroxypropylcellulose) (HPC)): 10 of 10
survivor count [1]: 10 of 10
survivor count (dose: 150.0 mg/kg/injection, schedule: Q01DX009 (ip), vehicle: Klucel (hydroxypropylcellulose) (HPC)): 10 of 10

CCCCCCCCCCCCCCCC(=O)NNC(C)C
survivor count [2]: 10 of 10

O=C1N(CC2CO2)CCN1CC1CO1 (configuration not stated)
T/C (dose: 50.0 mg/kg/injection, schedule: Q01DX009 (ip), vehicle: suspension in saline): 146 % of control
survivor count (dose: 200.0 mg/kg/injection, schedule: Q01DX009 (ip), vehicle: suspension in saline): 9 of 10

Cn1c(=O)c2c(ncn2CCO)n(C)c1=O
survivor count [3]: 4 of 10

Cc1ccccc1N1C(=O)CSC1=S
survivor count (dose: 50.0 mg/kg/injection, schedule: Q01DX009 (ip), vehicle: Klucel (hydroxypropylcellulose) (HPC)): 10 of 10
survivor count [1]: 10 of 10
survivor count [2]: 6 of 10
survivor count [4]: 2 of 10

CC(C)Nc1ccc(Nc2ccc(NC(C)C)cc2)cc1
survivor count (dose: 6.75 mg/kg/injection, schedule: Q04DX003 (ip), vehicle: alcohol): 4 of 10
survivor count (dose: 18.0 mg/kg/injection, schedule: Q01DX009 (ip), vehicle: alcohol): 8 of 10
survivor count (dose: 27.0 mg/kg/injection, schedule: Q04DX003 (ip), vehicle: alcohol): 4 of 10 and 5 of 10

CC1=CC(=O)C=CC1=Nc1ccc(N(C)C)cc1
survivor count [5]: 2 of 10

COc1cc2c3c(c1)/C(=N\NC(N)=O)CCN3CCC2
survivor count [1]: 10 of 10
survivor count [2]: 10 of 10
survivor count [4]: 10 of 10

Cc1cccc(NS(=O)(=O)c2ccccc2)c1C
survivor count [2]: 10 of 10

CC(C(=O)N1c2ccccc2Sc2ccccc21)[N+]1(C)CCCC1 (configuration not stated)
survivor count (dose: 100.0 mg/kg/injection, schedule: Q01DX009 (ip), vehicle: saline): 0 of 10
survivor count [6]: 0 of 10
survivor count [3]: 0 of 10

NC(Cc1ccc(O)cc1)C(=O)N/N=C/c1ccc(N(CCCl)CCCl)cc1 (configuration not stated)
T/C (dose: 60.0 mg/kg/injection, schedule: Q01DX009 (ip), vehicle: Klucel (hydroxypropylcellulose) (HPC)): 140 % of control

CN(C)NCCN1CCN(CCCN2c3ccccc3Sc3ccc(C(F)(F)F)cc32)CC1
T/C (dose: 15.0 mg/kg/injection, schedule: Q01DX009 (ip), vehicle: saline): 125 % of control
survivor count (dose: 30.0 mg/kg/injection, schedule: Q01DX009 (ip), vehicle: saline): 7 of 10

COCC(O)Cn1ccnc1[N+](=O)[O-] (configuration not stated)
T/C (dose: 400.0 mg/kg/injection, schedule: Q01DX009 (ip), vehicle: suspension in saline): 125 % of control

Cc1cc(Cl)ccc1NC(=O)c1ccccc1C(=O)O
survivor count [4]: 5 of 10

Cc1cc2nc(CO)[nH]c2cc1C
survivor count [2]: 10 of 10
survivor count [4]: 10 of 10

Nc1nc2c(ncn2C2OC(CO)C(O)C2N)c(=O)[nH]1 (configuration not stated)
T/C [6]: 130 % of control

CC(C)Cc1ccc(OC(=O)Nc2ccc(Cl)cc2)cc1
survivor count (dose: 50.0 mg/kg/injection, schedule: Q01DX009 (ip), vehicle: saline with Tween-80): 9 of 10
survivor count [5]: 9 of 10

Source: PubChem BioAssay AID192 (DTP/NCI, 2004)
